# Measured values as given in paper PMC4192540, “Targeted In Vivo Inhibition of Specific Protein–Protein Interactions Using Recombinant Antibodies” (PLoS ONE, 2014).
# Chains of the proteins cited; added tags and fusions are not shown. Lines headed by an entry give the natural chain unless they say otherwise; changes in a name come on top.
# UniProt Q9C5U0: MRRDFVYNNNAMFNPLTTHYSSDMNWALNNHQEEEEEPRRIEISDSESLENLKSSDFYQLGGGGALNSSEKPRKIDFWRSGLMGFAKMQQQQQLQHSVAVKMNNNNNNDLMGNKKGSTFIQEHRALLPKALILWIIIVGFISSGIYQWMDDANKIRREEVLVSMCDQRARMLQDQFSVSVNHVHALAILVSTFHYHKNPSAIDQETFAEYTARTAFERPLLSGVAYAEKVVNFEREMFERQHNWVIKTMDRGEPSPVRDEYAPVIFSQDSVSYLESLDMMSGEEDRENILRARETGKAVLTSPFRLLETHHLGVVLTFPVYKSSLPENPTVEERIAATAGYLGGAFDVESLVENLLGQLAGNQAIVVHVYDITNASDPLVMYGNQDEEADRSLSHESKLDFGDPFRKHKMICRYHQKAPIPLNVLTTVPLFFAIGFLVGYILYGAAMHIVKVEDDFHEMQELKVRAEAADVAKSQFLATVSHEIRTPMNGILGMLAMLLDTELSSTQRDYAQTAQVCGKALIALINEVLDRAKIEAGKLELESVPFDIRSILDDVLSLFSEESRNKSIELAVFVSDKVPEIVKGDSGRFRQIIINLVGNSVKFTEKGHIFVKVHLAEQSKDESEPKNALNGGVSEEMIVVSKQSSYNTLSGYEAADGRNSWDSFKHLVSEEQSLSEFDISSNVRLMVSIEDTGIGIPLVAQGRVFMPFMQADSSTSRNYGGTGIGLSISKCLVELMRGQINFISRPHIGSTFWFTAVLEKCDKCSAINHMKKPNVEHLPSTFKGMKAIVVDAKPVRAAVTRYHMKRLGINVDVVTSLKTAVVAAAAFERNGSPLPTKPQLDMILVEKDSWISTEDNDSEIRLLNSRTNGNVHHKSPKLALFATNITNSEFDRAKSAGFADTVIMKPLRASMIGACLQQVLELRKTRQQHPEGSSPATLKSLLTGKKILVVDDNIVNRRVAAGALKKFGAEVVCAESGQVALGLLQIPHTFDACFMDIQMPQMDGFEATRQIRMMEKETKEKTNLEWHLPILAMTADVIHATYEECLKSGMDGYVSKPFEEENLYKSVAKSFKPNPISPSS
# Results are given in words; binding and its absence hold for the method and conditions named. A result given as binding can be weak or reduced; the word gives no strength. Sequences can lack the tags named with a protein.
# Target: AHK4 (A. thaliana) (UniProt Q9C5U0)
# Test: two-hybrid; yeast three-hybrid: receiver domain as Gal4 BD fusion, AHP proteins as Gal4 AD fusions, scFv hB7A expressed ectopically from pY3HS or empty pY3HS; S. cerevisiae PJ69-4A; media lacking Leu, Trp, Ura and His or Ade, or with 1 mM 3-Amino-1,2,4-triazole
binder,measurement,value
"ARABIDOPSIS … PHOSPHOTRANSFER PROTEIN 3, Gal4 activation domain fusion (protein, UniProt Q9SAZ5 1-155) MDTLIAQLQRRFCDFTISLYHQGFLDDQFTELKKLQDECSPDFVAEVVTLFFEDCEKLISNMARALDQTGNVDFKLVGSSVHQLKGSSSSVGAKRVKGLCVTLKECCDSQNYEGCVRCLQQVDIEYKTLKAKLQDLFNLEQQIVQAGGRIPQVDI",binding,binds
